This note sets out measurements from paper PMC12569377, “P-Rex1 limits the agonist-induced internalization of GPCRs independently of its Rac-GEF activity” (Cell Reports, 2025).

By UniProt entry, the sequences of proteins in these tests, tags left out. Where a name states a change or a piece, a line headed by the entry shows the natural chain unless it says otherwise. Residues count along the entry.
UniProt P25098: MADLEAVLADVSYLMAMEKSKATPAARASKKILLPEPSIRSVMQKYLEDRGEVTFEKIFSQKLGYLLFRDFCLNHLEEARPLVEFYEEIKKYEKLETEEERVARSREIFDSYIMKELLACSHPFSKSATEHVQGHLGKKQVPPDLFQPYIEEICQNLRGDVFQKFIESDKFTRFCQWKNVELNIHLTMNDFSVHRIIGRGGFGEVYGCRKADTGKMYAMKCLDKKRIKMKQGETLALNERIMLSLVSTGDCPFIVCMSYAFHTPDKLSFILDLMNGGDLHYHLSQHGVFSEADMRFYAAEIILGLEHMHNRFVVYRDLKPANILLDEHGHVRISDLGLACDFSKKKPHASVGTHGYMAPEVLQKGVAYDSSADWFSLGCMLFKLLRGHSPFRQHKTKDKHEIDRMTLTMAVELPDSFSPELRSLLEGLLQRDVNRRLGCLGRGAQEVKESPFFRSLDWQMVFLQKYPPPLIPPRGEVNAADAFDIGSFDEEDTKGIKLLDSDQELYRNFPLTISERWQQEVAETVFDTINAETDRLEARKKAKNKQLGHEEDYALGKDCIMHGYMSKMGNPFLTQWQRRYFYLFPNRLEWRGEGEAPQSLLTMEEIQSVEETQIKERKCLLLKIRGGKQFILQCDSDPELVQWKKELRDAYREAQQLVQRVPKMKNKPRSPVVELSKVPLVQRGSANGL
flag-Grk2-iCAT (aa 185–543): residues 185-543 of P25098
UniProt Q8TCU6: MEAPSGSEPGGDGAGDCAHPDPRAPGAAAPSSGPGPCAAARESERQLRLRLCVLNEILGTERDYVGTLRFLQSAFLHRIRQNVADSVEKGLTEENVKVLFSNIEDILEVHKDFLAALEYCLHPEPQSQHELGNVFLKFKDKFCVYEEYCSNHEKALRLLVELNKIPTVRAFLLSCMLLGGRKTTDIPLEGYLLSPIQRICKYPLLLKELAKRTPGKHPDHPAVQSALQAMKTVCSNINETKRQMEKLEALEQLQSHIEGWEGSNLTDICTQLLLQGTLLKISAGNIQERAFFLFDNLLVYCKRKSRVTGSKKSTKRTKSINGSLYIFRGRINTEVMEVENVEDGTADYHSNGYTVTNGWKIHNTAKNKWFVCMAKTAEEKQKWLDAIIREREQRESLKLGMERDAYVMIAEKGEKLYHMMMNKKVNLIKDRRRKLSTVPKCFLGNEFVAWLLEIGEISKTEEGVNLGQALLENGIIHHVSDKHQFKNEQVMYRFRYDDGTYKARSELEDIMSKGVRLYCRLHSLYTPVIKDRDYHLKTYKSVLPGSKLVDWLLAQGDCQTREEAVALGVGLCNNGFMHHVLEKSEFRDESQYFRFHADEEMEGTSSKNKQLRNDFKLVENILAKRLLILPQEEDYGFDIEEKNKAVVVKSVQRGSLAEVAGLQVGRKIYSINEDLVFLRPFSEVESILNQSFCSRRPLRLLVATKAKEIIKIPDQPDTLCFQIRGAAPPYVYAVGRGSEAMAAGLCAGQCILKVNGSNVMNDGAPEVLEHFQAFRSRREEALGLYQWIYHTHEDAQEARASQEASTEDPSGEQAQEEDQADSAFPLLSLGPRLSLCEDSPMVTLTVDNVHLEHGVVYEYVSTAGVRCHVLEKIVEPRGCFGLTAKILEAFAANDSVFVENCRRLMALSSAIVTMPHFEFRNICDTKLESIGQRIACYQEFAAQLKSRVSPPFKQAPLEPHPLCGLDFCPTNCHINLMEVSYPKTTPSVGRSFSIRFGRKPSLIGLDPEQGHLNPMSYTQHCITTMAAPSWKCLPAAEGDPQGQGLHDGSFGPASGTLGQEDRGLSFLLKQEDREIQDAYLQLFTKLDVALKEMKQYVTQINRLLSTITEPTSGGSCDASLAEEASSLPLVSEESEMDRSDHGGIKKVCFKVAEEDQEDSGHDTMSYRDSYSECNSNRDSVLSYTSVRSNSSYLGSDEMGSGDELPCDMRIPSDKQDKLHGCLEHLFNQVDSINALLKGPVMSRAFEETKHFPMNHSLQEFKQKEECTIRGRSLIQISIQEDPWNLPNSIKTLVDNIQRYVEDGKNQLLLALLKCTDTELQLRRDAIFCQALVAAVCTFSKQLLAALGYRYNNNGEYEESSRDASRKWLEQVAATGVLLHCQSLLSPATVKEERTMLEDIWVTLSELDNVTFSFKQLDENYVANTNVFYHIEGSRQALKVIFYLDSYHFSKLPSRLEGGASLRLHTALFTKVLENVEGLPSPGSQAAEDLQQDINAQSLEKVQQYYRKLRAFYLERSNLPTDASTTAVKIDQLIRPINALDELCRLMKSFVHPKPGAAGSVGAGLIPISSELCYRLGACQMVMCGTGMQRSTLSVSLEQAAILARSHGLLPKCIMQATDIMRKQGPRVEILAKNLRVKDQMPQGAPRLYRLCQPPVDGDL

One test deals with flag-Grk2 (full-length) (UniProt P25098). Kind of test: co-IP; HEK293-S1PR1 cells expressing myc-P-Rex1 and/or flag-Grk2 or flag-Grk2-iCAT, serum starved 14 h; total lysate (50 mM HEPES pH 7.2, 150 mM NaCl, 1% NP-40) immunoprecipitated with magnetic anti-flag agarose, 60 min at 4°C, 4 washes; western blot.
Test [1] deals with flag-Grk2-iCAT (aa 185–543) (UniProt P25098). The description is as above.

Results are given in words; binding and its absence hold for the method and conditions named. Binding seen in cells or lysates may run through a third protein. Some entries that bind do so weakly or less than the wild type.

With myc-P-Rex1 (from UniProt Q8TCU6 1-1659), the binding result in the test with flag-Grk2 (full-length) is “binds”; in test [1] it was “no binding”.
